Assay results: PMC3507626, “The Crystal Structure of the Intact E. coli RelBE Toxin-Antitoxin Complex Provides the Structural Basis for Conditional Cooperativity” (Structure(London, England:1993), 2012)
These are yes or no findings as the source states them, for the method shown. Some entries that bind do so weakly or less than the wild type. Sequences can lack the tags named with a protein.

Target: Escherichia coli RelB (untagged, intact antitoxin) (Escherichia coli) (UniProt P0C079)
Assay: crystal structure; RelB2E2 reconstituted from purified RelB and RelE R81A; crystals at 4°C, 1.6-2.0 M ammonium sulfate, 0.1 M Na acetate pH 4.6; space group P6(1)22; 2.8 Å; both purified

B1: Escherichia coli RelB (untagged, intact antitoxin) (natural protein, UniProt P0C079 1-79, looked up)
chain: MGSINLRIDDELKARSYAALEKMGVTPSEALRLMLEYIADNERLPFKQTLLSDEDAELVEIVKERLRNPKPVRVTLDEL
notes: RelB antitoxin of the relBE locus, Escherichia coli, 79 residues (residues 2-79 of 79 seen in the structure); Untagged; Details of purification are in the Supplemental Experimental Procedures; source: E. coli, plasmid pSC2524HE encoding His-tagged RelE R81A and untagged RelB; purified by denaturation, ion exchange, gel filtration
  binding: binds
